## Percent effect of library compounds

Data taken from ChEMBL document CHEMBL3988442, “University of Dundee, Small-Polar-MMV Screening Library” (2021).

Mtb cholesterol medium: 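Phenotypic screen: M. tuberculosis growth, cholesterol and DPPC medium, 4 days; the read-out is not stated. Concentration: 50 µM. Higher reads as more growth inhibition (inferred: compounds with an IC50 in retests scored well above the rest). About 69,000 compounds were tested under these conditions; 0.54% (about 370) showed 50% or more at least once.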
Mtb glucose medium: 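Phenotypic screen: M. tuberculosis growth, glucose 7H9 medium, 3 days; the read-out is not stated. Compounds at 50 µM. The record gives no direction; compounds that gave an IC50 in retests scored well above the rest, so higher reads as more growth inhibition. About 69,000 compounds were tested under these conditions; 1.1% (about 760) showed 50% or more at least once.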

Results are given as percent effect.
How 0% and 100% were set is not recorded. Most values in the screen are low, and negative values occur.
This is an unselected part of the compounds tested.
Two or more numbers in one place are separate tests of the same structure; such repeats can differ widely.

| SMILES | Mtb cholesterol medium | Mtb glucose medium |
|---|---|---|
| `COc1cc(I)c(Cl)cc1C(=O)N(C)CC(=O)NC(C)(C)C` | 1.861 | 9.849 |
| `CN(C)c1ccnc(-c2ccnc3c2ccn3C)n1` | 14.57 | -0.8997 |
| `Cc1cnc(CN2CCCC2c2noc(C3CC3)n2)cn1` (configuration not stated) | -1.61 | 12.02 |
| `CS(=O)(=O)N1CCCC1C(=O)Nc1cnc2n1CCCC2` (configuration not stated) | -15.44 | -0.9202 |
| `N#Cc1ccc(F)c(CNC(=O)NCCC(=O)NC2CCCC2)c1` | -33.61 and -1.881 | 22.01 |
| `CCn1cc(-c2cc(-c3cc(CC(=O)O)cs3)nc(N)c2C#N)c(C)n1` | -14.36 | 9.375 |
| `CN1CCCC2(CCN(c3cccc(C#N)n3)C2)C1=O` (configuration not stated) | 6.46 | 3.835 and -0.3379 |
| `CN(C)CCN1C(=O)CCC12CCCN(C(=O)c1cccnc1)CC2.O=C(O)C(F)(F)F.O=C(O)C(F)(F)F` (configuration not stated) | 1.071 and 52.15 | -27.82 |
| `CN(C)C1(C(=O)NC2CCC(Oc3ccccc3C#N)CC2)CCC1` (configuration not stated) | 7.115 | -14.14 |
| `COc1cccc(N2CCC(CNCc3cccc(C#N)c3)C2)c1` (configuration not stated) | 16.33 | 14.9 and 42.86 |
| `CC(C)N(C)C(=O)CN1CCCC(c2ccc(C(=O)O)cc2)C1` (configuration not stated) | -37.02 | -60.42 |
| `COc1ccccc1N1CC(NC(=O)Cn2cc(C)nn2)CC1=O` (configuration not stated) | 1.951 | 18.66 |
| `O=C(Nc1cccnc1)C1Cc2nc(-c3ccsc3)sc2N1CC1CC1.O=C(O)C(F)(F)F` (configuration not stated) | 4.599 | -12.01 |
| `COc1cc(/C=C/c2ncc(C(=O)O)s2)cc(Cl)c1OC` | -28.29 | -43.56 |
| `Cc1cc(N(C)CCCn2cccn2)nc(N)n1` | -0.2746 | 14.29 |
| `Cc1csc2cc(C(=O)NC3CC3)cnc12` | -31.03 | -28.5 |
| `O=C(NCCO)C1CN(c2cncnc2)CCO1` (configuration not stated) | -14.09 | 12.13 |
| `O=C(NCC1CCCN(Cc2cccc3nonc23)C1)c1ccc[nH]1` (configuration not stated) | 10.92 | 0.2667 and 8.565 |
| `O=C(O)C(F)(F)F.O=C(O)C(F)(F)F.[H][C@@]12C[C@H](C(=O)Nc3cccnc3)CN(CC3CC3)[C@]1([H])CCO2` | -14.91 | 11.88 |
| `CC(Cn1cccn1)n1cnc2cccc(Cl)c2c1=O` (configuration not stated) | -4.677 | -10.32 |
| `Cc1cc(N2CCC3(CCC(=O)N(CCCO)C3)CC2)nc(N(C)C)n1` | 2.807 | 2.073 |
| `Cc1ccc(Nc2nccc(C3CCCN(CC(=O)N(C)C)C3)n2)nc1` (configuration not stated) | 15.28 | 21.75 |
| `CC(C)c1cc(=O)[nH]c(-c2ccccc2CN2CCCCCC2)n1` | -5.798 | -31 and -2.643 |
| `COCC(=O)NCc1cc(=O)n2c(n1)CN(Cc1ccccc1)CCC2.O=C(O)C(F)(F)F` | -5.408 | -3.306 |
| `Cc1noc(C)c1C(=O)N1CCC(c2cc3cnccc3[nH]2)CC1` | 5.01 and -24.65 | -5.295 |
| `COc1ccc(-n2nc(C(C)C)nc2COC(C)C)cc1` | -27.99 | -18.94 |
| `CN(C)CCN1CC(C(=O)N2CCC(c3cc(=O)[nH]cn3)CC2)CC1=O` (configuration not stated) | 16.93 | 8.973 |
| `CC(C)N1CCCC2(CCN(Cc3nncn3C(C)C)C2)C1=O` (configuration not stated) | -2.721 | 6.446 |
| `COc1cc(N2CCC3(CCN(Cc4csc(C)n4)C3)CC2)ncn1.O=C(O)C(F)(F)F` | -5.5 | 10.23 |
| `Fc1ccccc1Oc1nccnc1C1CCN(C2CCOCC2)CC1` | -13.86 | -17.25 |
| `CCc1csc(NC(=O)Nc2c(C)n[nH]c2C)n1` | 7.195 | -16.95 |
| `CNc1cc2c(nn1)CCN(C(=O)c1ccc(-n3cccn3)nc1)C2` | 7.659 | 5.745 |
| `Cc1nn(C)cc1NC(=O)CC1CCN(C(=O)Cc2ccccc2)CC1` | -0.09557 | -1.881 |
| `[H][C@@]12CC[C@H](Oc3cccc(F)c3)[C@]1([H])CN(C(=O)c1cncnc1)C2` | 12.94 | 1.438 |
| `Cc1cc(CN(C)C(=O)Nc2ccccc2C)no1` | -4.198 | -9.194 |
| `Cc1cc2ccccc2n1CCC(=O)N1CCC[C@H]1C(N)=O` | 16.28 | -0.482 |
| `CN(C)c1ccc(NC(=O)NCC2CCOC2)cn1` (configuration not stated) | -27.97 | -67.96 |
| `Cc1cccc2c1ccn2CCC(=O)O` | -20.96 | -25.52 |
| `CS(=O)(=O)N(Cc1ccon1)c1ccc(F)cc1` | -1.91 | 13.42 |
| `NC(=O)C1CCN(C(C(=O)O)c2ccc(Cl)c(C(F)(F)F)c2)CC1` (configuration not stated) | -7.319 | 0.3928 and -10.03 |
| `CCCC(=O)Nc1ccc(CC(=O)N(C)CCc2cn[nH]c2)cc1` | 5.803 | 22.77 |
| `CCC(NS(=O)(=O)N1CCOCC1)c1ccccc1OC` (configuration not stated) | -10.45 | -9.334 and -1.575 |
| `Cc1occc1C(=O)N1CCOC2(CCCC2)C1` | 38.55 | -0.6333 |

5 of the entries, repeated:

| SMILES | Mtb cholesterol medium | Mtb glucose medium |
|---|---|---|
| `CS(=O)(=O)N(Cc1ccon1)c1ccc(F)cc1` | -1.91 | 13.42 |
| `CC(C)N(C)C(=O)CN1CCCC(c2ccc(C(=O)O)cc2)C1` (configuration not stated) | -37.02 | -60.42 |
| `CC(C)c1cc(=O)[nH]c(-c2ccccc2CN2CCCCCC2)n1` | -5.798 | -31 and -2.643 |
| `[H][C@@]12CC[C@H](Oc3cccc(F)c3)[C@]1([H])CN(C(=O)c1cncnc1)C2` | 12.94 | 1.438 |
| `CS(=O)(=O)N1CCCC1C(=O)Nc1cnc2n1CCCC2` (configuration not stated) | -15.44 | -0.9202 |